Source: doi:10.1101/2021.10.14.464399
These are yes or no findings as the source states them, for the method shown. A result given as binding can be weak or reduced; the word gives no strength.

Chains of the proteins cited; added tags and fusions are not shown. Lines headed by an entry give the natural chain unless they say otherwise; changes in a name come on top.
UniProt P43254: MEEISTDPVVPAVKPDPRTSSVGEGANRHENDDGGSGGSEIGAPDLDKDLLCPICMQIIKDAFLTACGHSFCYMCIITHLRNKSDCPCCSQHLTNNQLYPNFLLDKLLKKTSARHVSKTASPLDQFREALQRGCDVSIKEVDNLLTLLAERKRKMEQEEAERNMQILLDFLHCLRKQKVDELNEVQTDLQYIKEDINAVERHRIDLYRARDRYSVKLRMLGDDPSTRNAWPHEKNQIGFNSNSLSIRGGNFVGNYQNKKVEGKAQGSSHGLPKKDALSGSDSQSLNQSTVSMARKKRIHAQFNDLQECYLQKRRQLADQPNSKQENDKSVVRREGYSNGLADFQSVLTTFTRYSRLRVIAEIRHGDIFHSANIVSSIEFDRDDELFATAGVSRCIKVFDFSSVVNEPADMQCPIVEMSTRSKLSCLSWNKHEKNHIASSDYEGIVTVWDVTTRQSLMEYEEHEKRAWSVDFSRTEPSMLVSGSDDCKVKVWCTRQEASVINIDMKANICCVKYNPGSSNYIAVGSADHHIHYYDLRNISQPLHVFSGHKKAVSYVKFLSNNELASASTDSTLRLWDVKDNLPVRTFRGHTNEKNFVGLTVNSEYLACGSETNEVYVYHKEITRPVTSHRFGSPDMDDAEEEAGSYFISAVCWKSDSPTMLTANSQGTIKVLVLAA

Molecular target: C-terminal WD40-domain of COP1 (COP1^C340) (Arabidopsis thaliana) (UniProt P43254)
Experiment: two-hybrid

binding: binds
B1: BBX21 (protein, UniProt Q9LQZ7 1-331)
chain: MKIRCDVCDKEEASVFCTADEASLCGGCDHQVHHANKLASKHLRFSLLYPSSSNTSSPLCDICQDKKALLFCQQDRAILCKDCDSSIHAANEHTKKHDRFLLTGVKLSATSSVYKPTSKSSSSSSSNQDFSVPGSSISNPPPLKKPLSAPPQSNKIQPFSKINGGDASVNQWGSTSTISEYLMDTLPGWHVEDFLDSSLPTYGFSKSGDDDGVLPYMEPEDDNNTKRNNNNNNNNNNNTVSLPSKNLGIWVPQIPQTLPSSYPNQYFSQDNNIQFGMYNKETSPEVVSFAPIQNMKQQGQNNKRWYDDGGFTVPQITPPPLSSNKKFRSFW
